Measurements as given in article PMC6713327.
These are yes or no findings as the source states them, for the method shown. Binding seen in cells or lysates may run through a third protein. Here binding means that the protein was enriched with, or labelled near, the bait; the list need not be complete.

Amino acid sequences for entries named in this document (tags omitted). Residues count along the entry.
UniProt Q5JRA6, residues 23-1907: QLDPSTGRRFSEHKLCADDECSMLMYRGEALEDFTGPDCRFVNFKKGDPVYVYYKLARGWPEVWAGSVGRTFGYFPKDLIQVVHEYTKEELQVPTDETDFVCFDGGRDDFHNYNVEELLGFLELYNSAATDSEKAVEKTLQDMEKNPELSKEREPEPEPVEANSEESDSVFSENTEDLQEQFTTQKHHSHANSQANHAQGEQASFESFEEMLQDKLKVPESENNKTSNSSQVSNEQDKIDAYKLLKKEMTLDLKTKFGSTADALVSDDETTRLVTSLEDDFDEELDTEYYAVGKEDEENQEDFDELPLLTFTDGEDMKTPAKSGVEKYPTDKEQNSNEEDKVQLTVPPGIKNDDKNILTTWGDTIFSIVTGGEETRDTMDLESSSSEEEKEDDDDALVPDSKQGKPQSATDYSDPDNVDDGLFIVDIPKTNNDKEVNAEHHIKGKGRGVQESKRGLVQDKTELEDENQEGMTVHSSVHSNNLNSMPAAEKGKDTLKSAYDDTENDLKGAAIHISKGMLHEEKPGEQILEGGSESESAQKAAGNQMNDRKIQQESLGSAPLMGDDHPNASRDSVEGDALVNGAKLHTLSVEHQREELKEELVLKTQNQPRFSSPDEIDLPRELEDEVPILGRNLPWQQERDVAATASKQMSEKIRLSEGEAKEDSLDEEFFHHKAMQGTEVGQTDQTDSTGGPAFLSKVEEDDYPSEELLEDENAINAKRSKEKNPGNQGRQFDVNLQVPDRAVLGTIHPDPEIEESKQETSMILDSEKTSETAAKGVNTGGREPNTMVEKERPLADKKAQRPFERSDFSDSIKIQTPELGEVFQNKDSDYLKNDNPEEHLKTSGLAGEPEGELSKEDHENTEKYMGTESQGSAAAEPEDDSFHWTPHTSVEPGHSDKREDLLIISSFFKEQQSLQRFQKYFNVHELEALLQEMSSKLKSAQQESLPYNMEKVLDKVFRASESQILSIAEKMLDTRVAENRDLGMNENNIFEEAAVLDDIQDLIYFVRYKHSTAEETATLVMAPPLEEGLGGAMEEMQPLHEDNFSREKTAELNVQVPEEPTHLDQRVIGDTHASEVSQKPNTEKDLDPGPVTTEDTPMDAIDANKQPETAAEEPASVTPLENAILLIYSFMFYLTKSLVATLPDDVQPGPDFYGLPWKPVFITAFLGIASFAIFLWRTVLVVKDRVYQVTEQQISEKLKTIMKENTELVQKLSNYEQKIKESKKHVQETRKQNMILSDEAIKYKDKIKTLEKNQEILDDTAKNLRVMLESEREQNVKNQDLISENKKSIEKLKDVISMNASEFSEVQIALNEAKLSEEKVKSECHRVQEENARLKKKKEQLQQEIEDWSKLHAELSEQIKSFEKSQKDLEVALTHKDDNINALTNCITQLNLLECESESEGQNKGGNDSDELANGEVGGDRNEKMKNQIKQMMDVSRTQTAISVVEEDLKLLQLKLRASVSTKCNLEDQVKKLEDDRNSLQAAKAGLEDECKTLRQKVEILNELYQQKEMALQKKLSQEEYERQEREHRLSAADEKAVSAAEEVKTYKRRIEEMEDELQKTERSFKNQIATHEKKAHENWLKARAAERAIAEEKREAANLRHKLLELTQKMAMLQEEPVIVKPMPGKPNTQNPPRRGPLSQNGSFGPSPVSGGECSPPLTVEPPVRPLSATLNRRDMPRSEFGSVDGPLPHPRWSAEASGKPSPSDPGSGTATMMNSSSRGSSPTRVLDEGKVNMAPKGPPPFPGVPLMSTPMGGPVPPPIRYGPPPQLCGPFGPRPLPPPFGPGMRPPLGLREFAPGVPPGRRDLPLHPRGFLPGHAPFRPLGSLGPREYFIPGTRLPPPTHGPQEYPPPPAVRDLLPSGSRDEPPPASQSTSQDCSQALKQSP
UniProt O00443: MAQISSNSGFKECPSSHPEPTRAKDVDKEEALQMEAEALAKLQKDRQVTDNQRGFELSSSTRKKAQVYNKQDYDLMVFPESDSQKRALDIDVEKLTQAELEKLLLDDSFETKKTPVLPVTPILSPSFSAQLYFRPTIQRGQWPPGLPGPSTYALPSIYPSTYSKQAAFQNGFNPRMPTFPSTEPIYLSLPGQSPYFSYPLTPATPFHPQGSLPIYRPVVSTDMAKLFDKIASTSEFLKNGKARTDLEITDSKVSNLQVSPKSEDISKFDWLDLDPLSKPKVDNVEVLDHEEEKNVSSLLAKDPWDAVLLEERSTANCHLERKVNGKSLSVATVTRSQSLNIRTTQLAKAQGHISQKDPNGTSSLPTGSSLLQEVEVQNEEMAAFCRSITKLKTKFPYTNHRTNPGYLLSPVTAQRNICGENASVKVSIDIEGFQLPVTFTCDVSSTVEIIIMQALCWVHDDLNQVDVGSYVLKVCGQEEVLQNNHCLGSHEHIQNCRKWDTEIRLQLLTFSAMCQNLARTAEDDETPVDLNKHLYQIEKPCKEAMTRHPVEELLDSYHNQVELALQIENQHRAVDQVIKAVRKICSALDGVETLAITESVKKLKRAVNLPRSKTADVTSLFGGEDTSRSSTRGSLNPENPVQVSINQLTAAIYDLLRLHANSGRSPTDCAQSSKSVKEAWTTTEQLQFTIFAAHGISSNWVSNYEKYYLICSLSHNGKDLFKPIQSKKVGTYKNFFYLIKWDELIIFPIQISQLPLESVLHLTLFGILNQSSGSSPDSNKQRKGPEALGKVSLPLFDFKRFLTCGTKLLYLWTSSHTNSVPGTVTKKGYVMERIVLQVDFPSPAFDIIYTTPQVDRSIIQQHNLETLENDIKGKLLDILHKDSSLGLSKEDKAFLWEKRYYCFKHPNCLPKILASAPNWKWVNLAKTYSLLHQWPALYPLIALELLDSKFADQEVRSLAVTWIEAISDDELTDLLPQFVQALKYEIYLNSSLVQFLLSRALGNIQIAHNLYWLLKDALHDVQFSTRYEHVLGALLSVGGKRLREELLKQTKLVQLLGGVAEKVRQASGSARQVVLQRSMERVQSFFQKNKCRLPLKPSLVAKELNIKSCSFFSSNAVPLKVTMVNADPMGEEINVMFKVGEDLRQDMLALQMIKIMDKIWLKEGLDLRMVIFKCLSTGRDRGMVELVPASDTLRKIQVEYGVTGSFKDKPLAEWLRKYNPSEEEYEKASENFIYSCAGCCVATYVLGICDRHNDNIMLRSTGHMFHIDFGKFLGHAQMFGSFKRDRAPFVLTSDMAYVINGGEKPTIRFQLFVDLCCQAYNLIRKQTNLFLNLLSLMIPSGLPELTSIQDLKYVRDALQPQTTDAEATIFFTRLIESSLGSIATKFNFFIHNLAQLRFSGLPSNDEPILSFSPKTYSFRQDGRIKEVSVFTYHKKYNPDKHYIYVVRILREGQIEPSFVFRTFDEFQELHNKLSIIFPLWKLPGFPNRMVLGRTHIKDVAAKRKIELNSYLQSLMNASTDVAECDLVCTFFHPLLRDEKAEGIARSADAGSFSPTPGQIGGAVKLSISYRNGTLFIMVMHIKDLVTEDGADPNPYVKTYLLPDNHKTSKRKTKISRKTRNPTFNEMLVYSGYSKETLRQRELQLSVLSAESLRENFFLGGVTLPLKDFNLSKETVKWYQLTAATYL
UniProt P07814: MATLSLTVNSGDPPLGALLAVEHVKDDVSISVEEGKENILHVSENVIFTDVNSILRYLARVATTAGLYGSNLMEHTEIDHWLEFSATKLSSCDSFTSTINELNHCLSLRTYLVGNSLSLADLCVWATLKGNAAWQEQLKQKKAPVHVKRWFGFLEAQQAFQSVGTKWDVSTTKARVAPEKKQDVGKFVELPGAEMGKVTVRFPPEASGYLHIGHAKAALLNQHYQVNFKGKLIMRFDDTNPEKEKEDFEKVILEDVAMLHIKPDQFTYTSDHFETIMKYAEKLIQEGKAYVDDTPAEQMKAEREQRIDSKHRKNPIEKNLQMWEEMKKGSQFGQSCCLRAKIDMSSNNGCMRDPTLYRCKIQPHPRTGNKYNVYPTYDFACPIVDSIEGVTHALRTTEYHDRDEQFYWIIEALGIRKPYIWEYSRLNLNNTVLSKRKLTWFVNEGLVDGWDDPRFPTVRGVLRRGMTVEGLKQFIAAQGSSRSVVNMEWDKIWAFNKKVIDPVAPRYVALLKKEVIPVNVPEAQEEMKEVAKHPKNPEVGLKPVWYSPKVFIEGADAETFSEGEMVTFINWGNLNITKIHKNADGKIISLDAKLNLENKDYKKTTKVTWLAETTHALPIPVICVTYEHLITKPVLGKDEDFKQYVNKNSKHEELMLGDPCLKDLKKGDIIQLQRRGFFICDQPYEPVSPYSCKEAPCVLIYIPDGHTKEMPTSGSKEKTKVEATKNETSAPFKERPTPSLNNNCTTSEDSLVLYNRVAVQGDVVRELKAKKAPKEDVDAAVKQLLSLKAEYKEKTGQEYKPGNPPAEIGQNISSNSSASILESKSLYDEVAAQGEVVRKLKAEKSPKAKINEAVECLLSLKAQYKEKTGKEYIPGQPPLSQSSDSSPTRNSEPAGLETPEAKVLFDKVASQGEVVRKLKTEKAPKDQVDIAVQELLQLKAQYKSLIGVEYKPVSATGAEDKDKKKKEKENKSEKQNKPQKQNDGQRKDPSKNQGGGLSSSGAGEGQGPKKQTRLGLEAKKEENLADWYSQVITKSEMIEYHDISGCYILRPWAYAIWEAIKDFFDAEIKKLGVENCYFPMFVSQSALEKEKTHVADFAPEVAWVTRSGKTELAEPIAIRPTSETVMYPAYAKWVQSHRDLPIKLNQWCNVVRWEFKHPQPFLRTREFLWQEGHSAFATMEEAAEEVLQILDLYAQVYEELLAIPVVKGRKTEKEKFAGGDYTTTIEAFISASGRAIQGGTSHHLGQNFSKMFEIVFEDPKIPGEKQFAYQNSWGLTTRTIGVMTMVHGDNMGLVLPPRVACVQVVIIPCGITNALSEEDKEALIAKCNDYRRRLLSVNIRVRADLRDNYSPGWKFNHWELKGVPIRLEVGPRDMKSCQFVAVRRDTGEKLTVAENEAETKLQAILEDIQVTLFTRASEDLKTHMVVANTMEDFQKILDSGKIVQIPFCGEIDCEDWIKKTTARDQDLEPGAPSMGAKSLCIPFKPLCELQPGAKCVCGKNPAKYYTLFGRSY
UniProt Q8TAQ2: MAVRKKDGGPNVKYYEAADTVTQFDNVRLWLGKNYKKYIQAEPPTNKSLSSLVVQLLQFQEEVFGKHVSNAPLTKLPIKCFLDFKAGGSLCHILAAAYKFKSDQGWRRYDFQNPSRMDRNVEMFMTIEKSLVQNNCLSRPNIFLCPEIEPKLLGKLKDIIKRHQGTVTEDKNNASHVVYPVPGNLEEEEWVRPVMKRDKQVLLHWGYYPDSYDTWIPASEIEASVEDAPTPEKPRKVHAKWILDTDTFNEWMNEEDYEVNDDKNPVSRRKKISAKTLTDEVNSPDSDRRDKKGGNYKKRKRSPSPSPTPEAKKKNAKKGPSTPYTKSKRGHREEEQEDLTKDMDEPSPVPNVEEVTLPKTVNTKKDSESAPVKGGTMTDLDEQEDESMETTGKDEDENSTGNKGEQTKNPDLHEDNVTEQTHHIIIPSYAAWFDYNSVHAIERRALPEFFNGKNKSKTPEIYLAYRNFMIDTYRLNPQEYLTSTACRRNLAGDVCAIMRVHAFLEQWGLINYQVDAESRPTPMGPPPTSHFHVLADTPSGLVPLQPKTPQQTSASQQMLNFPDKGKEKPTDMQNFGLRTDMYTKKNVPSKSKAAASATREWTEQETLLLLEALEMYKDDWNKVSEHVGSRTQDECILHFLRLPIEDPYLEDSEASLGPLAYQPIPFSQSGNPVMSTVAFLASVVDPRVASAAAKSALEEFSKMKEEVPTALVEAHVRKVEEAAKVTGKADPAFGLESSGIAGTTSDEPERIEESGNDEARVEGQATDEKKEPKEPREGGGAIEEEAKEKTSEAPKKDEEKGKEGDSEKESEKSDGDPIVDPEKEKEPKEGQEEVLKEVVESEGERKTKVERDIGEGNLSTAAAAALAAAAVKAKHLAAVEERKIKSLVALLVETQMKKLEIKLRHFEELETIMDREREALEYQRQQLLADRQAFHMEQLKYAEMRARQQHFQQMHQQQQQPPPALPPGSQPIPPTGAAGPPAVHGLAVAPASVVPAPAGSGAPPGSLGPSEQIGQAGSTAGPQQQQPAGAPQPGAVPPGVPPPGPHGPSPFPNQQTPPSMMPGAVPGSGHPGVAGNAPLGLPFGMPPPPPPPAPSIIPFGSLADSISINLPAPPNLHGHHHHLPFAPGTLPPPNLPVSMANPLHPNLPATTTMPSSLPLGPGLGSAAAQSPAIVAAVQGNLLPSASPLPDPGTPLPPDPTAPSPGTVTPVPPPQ

T1: FANCA (human (endogenous in 293FT and EndoC-βH3)) (UniProt O15360)
T1 sequence: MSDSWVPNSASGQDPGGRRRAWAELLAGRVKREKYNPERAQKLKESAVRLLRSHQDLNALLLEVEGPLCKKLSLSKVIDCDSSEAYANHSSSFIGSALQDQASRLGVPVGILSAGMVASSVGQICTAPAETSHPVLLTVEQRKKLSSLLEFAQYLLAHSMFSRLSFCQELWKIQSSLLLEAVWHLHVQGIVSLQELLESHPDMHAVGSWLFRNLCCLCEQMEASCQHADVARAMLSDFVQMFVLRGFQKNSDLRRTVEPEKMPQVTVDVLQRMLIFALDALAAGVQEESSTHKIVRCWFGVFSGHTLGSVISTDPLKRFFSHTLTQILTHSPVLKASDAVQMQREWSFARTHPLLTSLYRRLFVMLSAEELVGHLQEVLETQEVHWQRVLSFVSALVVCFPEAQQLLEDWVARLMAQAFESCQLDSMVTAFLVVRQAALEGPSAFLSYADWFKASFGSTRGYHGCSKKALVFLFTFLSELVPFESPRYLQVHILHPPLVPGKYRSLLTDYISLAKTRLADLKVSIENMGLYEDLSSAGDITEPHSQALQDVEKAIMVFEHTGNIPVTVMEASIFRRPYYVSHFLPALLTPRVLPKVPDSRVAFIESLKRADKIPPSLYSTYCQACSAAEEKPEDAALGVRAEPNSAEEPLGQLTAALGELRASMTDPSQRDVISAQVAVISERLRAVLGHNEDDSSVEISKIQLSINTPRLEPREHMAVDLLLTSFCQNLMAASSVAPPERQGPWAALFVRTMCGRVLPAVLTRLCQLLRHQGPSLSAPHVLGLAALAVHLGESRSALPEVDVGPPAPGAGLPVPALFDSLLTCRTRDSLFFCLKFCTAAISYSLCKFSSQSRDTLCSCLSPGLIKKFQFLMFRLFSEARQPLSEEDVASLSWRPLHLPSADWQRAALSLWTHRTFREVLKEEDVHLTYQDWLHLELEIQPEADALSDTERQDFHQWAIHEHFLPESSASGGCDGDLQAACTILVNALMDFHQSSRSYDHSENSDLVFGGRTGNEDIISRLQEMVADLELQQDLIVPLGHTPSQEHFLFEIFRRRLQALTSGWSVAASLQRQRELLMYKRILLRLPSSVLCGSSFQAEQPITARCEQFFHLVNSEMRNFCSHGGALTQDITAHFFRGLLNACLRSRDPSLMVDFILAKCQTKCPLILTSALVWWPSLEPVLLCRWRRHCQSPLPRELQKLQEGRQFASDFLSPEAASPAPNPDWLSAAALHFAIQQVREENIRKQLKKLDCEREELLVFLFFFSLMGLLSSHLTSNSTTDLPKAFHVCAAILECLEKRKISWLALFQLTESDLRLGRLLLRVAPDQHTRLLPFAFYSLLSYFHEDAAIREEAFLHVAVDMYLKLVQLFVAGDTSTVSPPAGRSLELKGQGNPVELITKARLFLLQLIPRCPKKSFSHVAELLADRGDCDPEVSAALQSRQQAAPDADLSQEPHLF

B1: GARS (protein, UniProt P41250 37-739)
chain: SAASCPPISLPAAASRSSMDGAGAEEVLAPLRLAVRQQGDLVRKLKEDKAPQVDVDKAVAELKARKRVLEAKELALQPKDDIVDRAKMEDTLKRRFFYDQAFAIYGGVSGLYDFGPVGCALKNNIIQTWRQHFIQEEQILEIDCTMLTPEPVLKTSGHVDKFADFMVKDVKNGECFRADHLLKAHLQKLMSDKKCSVEKKSEMESVLAQLDNYGQQELADLFVNYNVKSPITGNDLSPPVSFNLMFKTFIGPGGNMPGYLRPETAQGIFLNFKRLLEFNQGKLPFAAAQIGNSFRNEISPRSGLIRVREFTMAEIEHFVDPSEKDHPKFQNVADLHLYLYSAKAQVSGQSARKMRLGDAVEQGVINNTVLGYFIGRIYLYLTKVGISPDKLRFRQHMENEMAHYACDCWDAESKTSYGWIEIVGCADRSCYDLSCHARATKVPLVAEKPLKEPKTVNVVQFEPSKGAIGKAYKKDAKLVMEYLAICDECYITEMEMLLNEKGEFTIETEGKTFQLTKDMINVKRFQKTLYVEEVVPNVIEPSFGLGRIMYTVFEHTFHVREGDEQRTFFSFPAVVAPFKCSVLPLSQNQEFMPFVKELSEALTRHGVSHKVDDSSGSIGRRYARTDEIGVAFGVTIDFDTVNKTPHTATLRDRDSMRQIRAEISELPSIVQDLANGNITWADVEARYPLFEGQETGKKETIEE
B2: MARS (protein, UniProt P56192 1-900)
chain: MRLFVSDGVPGCLPVLAAAGRARGRAEVLISTVGPEDCVVPFLTRPKVPVLQLDSGNYLFSTSAICRYFFLLSGWEQDDLTNQWLEWEATELQPALSAALYYLVVQGKKGEDVLGSVRRALTHIDHSLSRQNCPFLAGETESLADIVLWGALYPLLQDPAYLPEELSALHSWFQTLSTQEPCQRAAETVLKQQGVLALRPYLQKQPQPSPAEGRAVTNEPEEEELATLSEEEIAMAVTAWEKGLESLPPLRPQQNPVLPVAGERNVLITSALPYVNNVPHLGNIIGCVLSADVFARYSRLRQWNTLYLCGTDEYGTATETKALEEGLTPQEICDKYHIIHADIYRWFNISFDIFGRTTTPQQTKITQDIFQQLLKRGFVLQDTVEQLRCEHCARFLADRFVEGVCPFCGYEEARGDQCDKCGKLINAVELKKPQCKVCRSCPVVQSSQHLFLDLPKLEKRLEEWLGRTLPGSDWTPNAQFITRSWLRDGLKPRCITRDLKWGTPVPLEGFEDKVFYVWFDATIGYLSITANYTDQWERWWKNPEQVDLYQFMAKDNVPFHSLVFPCSALGAEDNYTLVSHLIATEYLNYEDGKFSKSRGVGVFGDMAQDTGIPADIWRFYLLYIRPEGQDSAFSWTDLLLKNNSELLNNLGNFINRAGMFVSKFFGGYVPEMVLTPDDQRLLAHVTLELQHYHQLLEKVRIRDALRSILTISRHGNQYIQVNEPWKRIKGSEADRQRAGTVTGLAVNIAALLSVMLQPYMPTVSATIQAQLQLPPPACSILLTNFLCTLPAGHQIGTVSPLFQKLENDQIESLRQRFGGGQAKTSPKPAVVETVTTAKPQQIQALMDEVTKQGNIVRELKAQKADKNEVAAEVAKLLDLKKQLAVAEGKPPEAPKGKKKK
B3: RARS (protein, UniProt P54136 1-660)
chain: MDVLVSECSARLLQQEEEIKSLTAEIDRLKNCGCLGASPNLEQLQEENLKLKYRLNILRKSLQAERNKPTKNMINIISRLQEVFGHAIKAAYPDLENPPLLVTPSQQAKFGDYQCNSAMGISQMLKTKEQKVNPREIAENITKHLPDNECIEKVEIAGPGFINVHLRKDFVSEQLTSLLVNGVQLPALGENKKVIVDFSSPNIAKEMHVGHLRSTIIGESISRLFEFAGYDVLRLNHVGDWGTQFGMLIAHLQDKFPDYLTVSPPIGDLQVFYKESKKRFDTEEEFKKRAYQCVVLLQGKNPDITKAWKLICDVSRQELNKIYDALDVSLIERGESFYQDRMNDIVKEFEDRGFVQVDDGRKIVFVPGCSIPLTIVKSDGGYTYDTSDLAAIKQRLFEEKADMIIYVVDNGQSVHFQTIFAAAQMIGWYDPKVTRVFHAGFGVVLGEDKKKFKTRSGETVRLMDLLGEGLKRSMDKLKEKERDKVLTAEELNAAQTSVAYGCIKYADLSHNRLNDYIFSFDKMLDDRGNTAAYLLYAFTRIRSIARLANIDEEMLQKAARETKILLDHEKEWKLGRCILRFPEILQKILDDLFLHTLCDYIYELATAFTEFYDSCYCVEKDRQTGKILKVNMWRMLLCEAVAAVMAKGFDILGIKPVQRM
B4: WARS (protein, UniProt P23381 1-471)
chain: MPNSEPASLLELFNSIATQGELVRSLKAGNASKDEIDSAVKMLVSLKMSYKAAAGEDYKADCPPGNPAPTSNHGPDATEAEEDFVDPWTVQTSSAKGIDYDKLIVRFGSSKIDKELINRIERATGQRPHHFLRRGIFFSHRDMNQVLDAYENKKPFYLYTGRGPSSEAMHVGHLIPFIFTKWLQDVFNVPLVIQMTDDEKYLWKDLTLDQAYSYAVENAKDIIACGFDINKTFIFSDLDYMGMSSGFYKNVVKIQKHVTFNQVKGIFGFTDSDCIGKISFPAIQAAPSFSNSFPQIFRDRTDIQCLIPCAIDQDPYFRMTRDVAPRIGYPKPALLHSTFFPALQGAQTKMSASDPNSSIFLTDTAKQIKTKVNKHAFSGGRDTIEEHRQFGGNCDVDVSFMYLTFFLEDDDKLEQIRKDYTSGAMLTGELKKALIEVLQPLIAEHQARRKEVTDEIVKEFMTPRKLSFDFQ
B5: MIA2 (protein, UniProt Q96PC5 20-1412)
chain: LESTKLLADLKKCGDLECEALINRVSAMRDYRGPDCRYLNFTKGEEISVYVKLAGEREDLWAGSKGKEFGYFPRDAVQIEEVFISEEIQMSTKESDFLCLLGVSYTFDNEDSELNGDYGENIYPYEEDKDEKSSIYESDFQIEPGFYATYESTLFEDQVPALEAPEDIGSTSESKDWEEVVVESMEQDRIPEVHVPPSSAVSGVKEWFGLGGEQAEEKAFESVIEPVQESSFRSRKIAVEDENDLEELNNGEPQTEHQQESESEIDSVPKTQSELASESEHIPKPQSTGWFGGGFTSYLGFGDEDTGLELIAEESNPPLQDFPNSISSDKEATVPCTEILTEKKDTITNDSLSLKPSWFDFGFAILGFAYAKEDKIMLDDRKNEEDGGADEHEHPLTSELDPEKEQEIETIKIIETEDQIDKKPVSEKTDESDTIPYLKKFLYNFDNPWNFQNIPKETELPFPKQILDQNNVIENEETGEFSIDNYPTDNTKVMIFKSSYSLSDMVSNIELPTRIHEEVYFEPSSSKDSDENSKPSVDTEGPALVEIDRSVENTLLNSQMVSTDNSLSSQNYISQKEDASEFQILKYLFQIDVYDFMNSAFSPIVILTERVVAALPEGMRPDSNLYGFPWELVICAAVVGFFAVLFFLWRSFRSVRSRLYVGREKKLALMLSGLIEEKSKLLEKFSLVQKEYEGYEVESSLKDASFEKEATEAQSLEATCEKLNRSNSELEDEILCLEKELKEEKSKHSEQDELMADISKRIQSLEDESKSLKSQVAEAKMTFKIFQMNEERLKIAIKDALNENSQLQESQKQLLQEAEVWKEQVSELNKQKVTFEDSKVHAEQVLNDKESHIKTLTERLLKMKDWAAMLGEDITDDDNLELEMNSESENGAYLDNPPKGALKKLIHAAKLNASLKTLEGERNQIYIQLSEVDKTKEELTEHIKNLQTEQASLQSENTHFENENQKLQQKLKVMTELYQENEMKLHRKLTVEENYRLEKEEKLSKVDEKISHATEELETYRKRAKDLEEELERTIHSYQGQIISHEKKAHDNWLAARNAERNLNDLRKENAHNRQKLTETELKFELLEKDPYALDVPNTAFGREHSPYGPSPLGWPSSETRAFLSPPTLLEGPLRLSPLLPGGGGRGSRGPGNPLDHQITNERGESSCDRLTDPHRAPSDTGSLSPPWDQDRRMMFPPPGQSYPDSALPPQRQDRFCSNSGRLSGPAELRSFNMPSLDKMDGSMPSEMESSRNDTKDDLGNLNVPDSSLPAENEATGPGFVPPPLAPIRGPLFPVDARGPFLRRGPPFPPPPPGAMFGASRDYFPPGDFPGPPPAPFAMRNVYPPRGFPPYLPPRPGFFPPPPHSEGRSEFPSGLIPPSNEPATEHPEPQQET

target: T1, FANCA (human (endogenous in 293FT and EndoC-βH3)); assay: affinity purification with mass spectrometry; endogenous FANCA precipitated from lysate of EndoC-βH3 cells cultured in 5 mM or 20 mM glucose, anti-FANCA antibody coupled to Dynabeads, 2 h at 4°C; LC-MS/MS, SAINT (BFDR ≤ 0.05, SAINT score = 1.0); biological duplicates

binding, binds:
SMARCA4 (from UniProt P51532 1-1647)
ATG2A (from UniProt Q2TAZ0 1-1938)
FANCD1 (from UniProt P51587 1-3418)
MIA3 (from UniProt Q5JRA6 23-1907)
Phosphatidylinositol 4-phosphate 3-kinase C2 domain-containing subunit alpha (from UniProt O00443 1-1686)
EPRS (from UniProt P07814 1-1512)
SMARCC2 (from UniProt Q8TAQ2 1-1214)
SMARCA2 (from UniProt P51531 1-1590)
B1
B2
B3
B4
B5
